Measurements: the supplement of paper PMC3334620
The full ranking holds about 33,000 sequences; the median of “E-score (-0.5 to 0.5)” is about -0.0034, and the highest 2% start at about 0.25. Some of the results follow.

Biological target: T1, Yap3 (UniProt P38749)
T1 sequence: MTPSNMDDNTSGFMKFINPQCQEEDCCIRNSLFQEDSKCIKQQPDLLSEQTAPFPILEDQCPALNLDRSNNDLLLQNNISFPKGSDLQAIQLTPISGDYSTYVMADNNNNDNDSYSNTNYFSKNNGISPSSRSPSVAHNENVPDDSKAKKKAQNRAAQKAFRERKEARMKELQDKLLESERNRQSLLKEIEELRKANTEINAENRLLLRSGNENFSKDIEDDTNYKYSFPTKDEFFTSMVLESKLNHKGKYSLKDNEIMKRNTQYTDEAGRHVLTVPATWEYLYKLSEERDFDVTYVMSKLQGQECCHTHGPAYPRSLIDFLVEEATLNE
Assay: PBM E-score (8-mer binding enrichment) (E-score (-0.5 to 0.5)); higher = stronger / more preferred TF binding
Details: protein concentration: 100 nM; construct: GST-full length
Method in brief: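 Yeast transcription factors, full-length or as DNA-binding domains, were expressed with a GST tag using PURExpress in vitro transcription/translation. At about 100-200 nM they were applied to universal all-10-mer Agilent arrays, double-stranded by primer extension on fresh or once-stripped slides. Fluorescent anti-GST detected bound protein, and masliner normalised the scans. E-scores for ungapped eight-base words, pooled with reverse complements, came from the Universal PBM Analysis Suite.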

| Sequence | PBM E-score |
| --- | --- |
| CAATGAGA | -0.034 |
| ACGGTTAT | 0.113 |
| AGGTAGTG | -0.011 |
| AAATTGGA | 0.214 |
| ACCAGGTA | -0.27 |
| AACGATTG | 0.107 |
| CCTTGGAG | -0.0876 |
| ACCGTCCT | 0.0138 |
| CGTCGGTA | -0.178 |
| AGTCACCC | -0.079 |
| GAATAAAA | 0.178 |
| ACCAGCGC | 0.0291 |
| GCTTGATA | 0.1 |
| TCCTAAGA | -0.15 |
| GTTGTAAA | -0.11 |
| ATATGATG | 0.171 |
| AGGGCAGC | -0.0608 |
| AAACATGG | 0.0297 |
| ATGCACAA | 0.152 |
| GGACTCTA | -0.222 |
| ACGGCGAG | 0.12 |
| AACGGGAA | 0.0544 |
| GCATACAA | 0.188 |
| GCATCCCC | -0.134 |
| ACGTGTAG | -0.166 |

Two entries picked at random from the list so far, as already listed:

| Sequence | PBM E-score |
| --- | --- |
| ACCGTCCT | 0.0138 |
| CGTCGGTA | -0.178 |

Carrying on.

| Sequence | PBM E-score |
| --- | --- |
| ACCACGTG | 0.0326 |
| TCAAATGA | 0.0135 |
| AATGAAGT | 0.177 |
| ATATCGGG | 0.143 |
| CTCATAGA | 0.0689 |
| ACAAAGTG | 0.0611 |
| TATACTGA | 0.295 |
| ACAATCGA | -0.00279 |
| ACGCGCGG | 0.16 |
| CACGCCGG | -0.0727 |
| TGAAAAAA | 0.197 |
| ATTATTAA | 0.378 |
| GCCATCGC | -0.205 |
| ATGAGGAC | 0.0113 |
| AGATAATG | 0.196 |
| CGTTTGCC | 0.0367 |
| TGTGATAA | 0.205 |
| AAGTGCAA | 0.0907 |
| ATGAATAC | 0.163 |
| TCGCCCAA | -0.206 |
| CAACCGGG | -0.218 |
| TGATTCAA | 0.0187 |
| CACATGGA | -0.154 |
| CTGAACGC | -0.109 |
| CAATACGC | 0.0749 |

| Sequence | PBM E-score |
| --- | --- |
| CCGGCCGG | -0.151 |
| AGAAGTCC | -0.248 |
| CCCGGCAA | -0.169 |
| GCCCTGCC | -0.261 |
| AGGTGAGG | 0.0455 |
| TTCCTAAA | -0.0151 |
| GCATCACC | -0.175 |
| GGTGACAA | 0.14 |
| AAGAGGTG | 0.133 |
| CTACCGCA | -0.0328 |
| CATAATCG | 0.187 |
| ATTAAGTC | 0.127 |
| CTGAAGTC | -0.0743 |
| ACTCTAAA | 0.0706 |
| TCGGCGAA | 0.0737 |
| AGCGCGCT | 0.123 |
| GCTTGCCA | 0.00223 |
| AGGTATTA | 0.209 |
| ACTACTAG | 0.202 |
| CTTTCGTA | 0.159 |
| ACGCTAGG | -0.201 |
| GACGTACC | 0.0335 |
| AATATTAA | 0.346 |
| AGCCTAAT | 0.0381 |
| ATATATGA | 0.185 |

| Sequence | PBM E-score |
| --- | --- |
| AACAACGC | 0.0808 |
| CGGTCCAG | -0.297 |
| GTATGATA | 0.282 |
| CACCCTTA | 0.0425 |
| ACGTCAAA | 0.133 |
| GCCAGGCA | -0.12 |
| ATTTCCAC | 0.244 |
| GAAACTTC | -0.0423 |
| ATCCGTCC | -0.00156 |
| CGGGTACC | -0.163 |
| ACGGCGGC | -0.0245 |
| AGTGCTGA | -0.0503 |
| ACGAACCG | -0.0334 |
| CCCTTACC | -0.0844 |
| AGCTCTTG | -0.278 |
| ATTAAAGG | 0.199 |
| CAGGAACC | -0.123 |
| CTCTTCCC | -0.136 |
| AGCGTGAC | -0.116 |
| AATTGGTC | 0.197 |
| AGATCTAT | -0.115 |
| ATATCCAT | 0.241 |
| CACGTCAA | -0.134 |
| CGCTGGTA | -0.0139 |
| AACCACCT | 0.0296 |

| Sequence | PBM E-score |
| --- | --- |
| AAGCTTGG | -0.0871 |
| ACGCCATG | -6e-05 |
| ACCCAAGT | 0.112 |
| AACGATCG | 0.175 |
| ATACTGGG | -0.0943 |
| AACTAGTC | 0.131 |
| AGGAGGAA | -0.26 |
| ATTGTATA | 0.298 |
| TGGCAACA | 0.0492 |
| CGGAGGAA | -0.295 |
| AGGTCTTG | -0.0861 |
| AAGGGGGA | -0.0895 |
| CCTTAGGA | -0.104 |
| TATTTCAA | 0.235 |
| AATCCAGT | 0.116 |
| CAACAGGC | -0.0576 |
| CCTGGCGA | -0.166 |
| TGAGCGCA | -0.129 |
| CGCCCAGA | -0.141 |
| AGGGCCCC | -0.331 |
| AGGGGTCC | -0.252 |
| ACCGTTTG | -0.0393 |
| TAGCTCAA | -0.0451 |
| AAAGTTGC | -0.0736 |
| TACCGTCA | -0.0498 |

| Sequence | PBM E-score |
| --- | --- |
| GGATCCAA | 0.138 |
| CCGCTAAA | -0.0829 |
| CCCAGCCC | -0.159 |
| AAGTATCG | -0.0289 |
| AATAGTTC | 0.156 |
| ACCGGTGC | -0.181 |
| AATAACTC | 0.0896 |
| GGAACGTA | 0.0448 |
| GCATTGCC | -0.122 |
| CGCGGAAG | -0.0356 |
| AGCATGTG | 0.0224 |
| AGGCTAGG | -0.199 |
| AAGGCGGT | -0.0625 |
| CGATCATC | -0.113 |
| TTGCACAA | 0.186 |
| CATGATGA | 0.22 |
| TACGCGAA | 0.101 |
| GTCCAAGA | -0.288 |
| TCACGCCA | -0.0417 |
| AATAATAA | 0.308 |
| TATAGGCA | -0.0824 |
| TAGTTGAA | 0.192 |
| AGACTCCA | -0.125 |
| AAGTACCA | 0.125 |
| CCATTTCC | 0.17 |

| Sequence | PBM E-score |
| --- | --- |
| CAGCCGAG | -0.198 |
| AATTAAAT | 0.228 |
| CACGATAC | -0.197 |
| GCGTTTTA | 0.0039 |
| ATCCTTCA | 0.0774 |
| GACTTCAC | 0.0284 |
| CATTGGGC | -0.218 |
| GGCTTAAA | 0.0372 |
| GCGAGCGC | -0.137 |
| GCACTCAC | -0.0809 |
| ATTGCTTG | 0.0953 |
| GGTAAGGA | -0.109 |
| CTCTCAAA | 0.152 |
| ATAACAGC | 0.18 |
| CCACGTTC | -0.0856 |
| AAGCTGGT | -0.0365 |
| TGAAGCCA | -0.0877 |
| AAAACAAT | 0.199 |
| CGTCCACC | -0.24 |
| GTGCCAAC | 0.0191 |
| AGGCGCGG | -0.132 |
| GGAGAACC | -0.14 |

Part of the list above, with bars between the fields.
Sequence | PBM E-score
GCGAGCGC | -0.137
GCACTCAC | -0.0809
ATTGCTTG | 0.0953
GGTAAGGA | -0.109
CTCTCAAA | 0.152
ATAACAGC | 0.18
CCACGTTC | -0.0856
